In paper doi:10.1101/559641:
These are yes or no findings as the source states them, for the method shown. Binding seen in cells or lysates may run through a third protein. A yes stands for co-enrichment or nearness to the bait. Other partners may have been found.

Amino acid sequences for entries named in this document (tags omitted).
UniProt Q64321: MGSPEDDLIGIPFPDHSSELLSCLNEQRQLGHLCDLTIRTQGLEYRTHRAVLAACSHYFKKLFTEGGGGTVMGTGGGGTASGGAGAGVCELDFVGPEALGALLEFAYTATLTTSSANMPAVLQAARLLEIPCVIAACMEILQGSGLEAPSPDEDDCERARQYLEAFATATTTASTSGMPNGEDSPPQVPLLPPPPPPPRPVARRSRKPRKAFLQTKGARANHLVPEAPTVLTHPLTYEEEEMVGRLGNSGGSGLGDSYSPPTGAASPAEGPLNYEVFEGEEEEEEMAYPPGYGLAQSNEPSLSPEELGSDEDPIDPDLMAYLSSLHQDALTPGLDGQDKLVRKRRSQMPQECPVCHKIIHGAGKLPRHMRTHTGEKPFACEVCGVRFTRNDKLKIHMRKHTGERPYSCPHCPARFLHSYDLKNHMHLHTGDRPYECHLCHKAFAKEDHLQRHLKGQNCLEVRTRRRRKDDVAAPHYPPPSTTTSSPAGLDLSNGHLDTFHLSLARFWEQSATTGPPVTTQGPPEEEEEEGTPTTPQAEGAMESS
UniProt Q7TQC5: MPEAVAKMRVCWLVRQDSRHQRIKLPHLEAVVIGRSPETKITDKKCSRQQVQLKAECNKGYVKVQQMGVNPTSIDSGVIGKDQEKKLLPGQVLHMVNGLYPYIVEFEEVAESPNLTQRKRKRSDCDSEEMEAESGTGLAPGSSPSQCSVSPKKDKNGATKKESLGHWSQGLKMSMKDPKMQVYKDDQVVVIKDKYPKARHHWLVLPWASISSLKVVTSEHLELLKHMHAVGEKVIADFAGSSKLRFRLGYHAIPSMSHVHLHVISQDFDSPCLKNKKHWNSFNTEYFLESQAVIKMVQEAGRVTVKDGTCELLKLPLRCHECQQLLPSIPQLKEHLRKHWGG
UniProt O88379: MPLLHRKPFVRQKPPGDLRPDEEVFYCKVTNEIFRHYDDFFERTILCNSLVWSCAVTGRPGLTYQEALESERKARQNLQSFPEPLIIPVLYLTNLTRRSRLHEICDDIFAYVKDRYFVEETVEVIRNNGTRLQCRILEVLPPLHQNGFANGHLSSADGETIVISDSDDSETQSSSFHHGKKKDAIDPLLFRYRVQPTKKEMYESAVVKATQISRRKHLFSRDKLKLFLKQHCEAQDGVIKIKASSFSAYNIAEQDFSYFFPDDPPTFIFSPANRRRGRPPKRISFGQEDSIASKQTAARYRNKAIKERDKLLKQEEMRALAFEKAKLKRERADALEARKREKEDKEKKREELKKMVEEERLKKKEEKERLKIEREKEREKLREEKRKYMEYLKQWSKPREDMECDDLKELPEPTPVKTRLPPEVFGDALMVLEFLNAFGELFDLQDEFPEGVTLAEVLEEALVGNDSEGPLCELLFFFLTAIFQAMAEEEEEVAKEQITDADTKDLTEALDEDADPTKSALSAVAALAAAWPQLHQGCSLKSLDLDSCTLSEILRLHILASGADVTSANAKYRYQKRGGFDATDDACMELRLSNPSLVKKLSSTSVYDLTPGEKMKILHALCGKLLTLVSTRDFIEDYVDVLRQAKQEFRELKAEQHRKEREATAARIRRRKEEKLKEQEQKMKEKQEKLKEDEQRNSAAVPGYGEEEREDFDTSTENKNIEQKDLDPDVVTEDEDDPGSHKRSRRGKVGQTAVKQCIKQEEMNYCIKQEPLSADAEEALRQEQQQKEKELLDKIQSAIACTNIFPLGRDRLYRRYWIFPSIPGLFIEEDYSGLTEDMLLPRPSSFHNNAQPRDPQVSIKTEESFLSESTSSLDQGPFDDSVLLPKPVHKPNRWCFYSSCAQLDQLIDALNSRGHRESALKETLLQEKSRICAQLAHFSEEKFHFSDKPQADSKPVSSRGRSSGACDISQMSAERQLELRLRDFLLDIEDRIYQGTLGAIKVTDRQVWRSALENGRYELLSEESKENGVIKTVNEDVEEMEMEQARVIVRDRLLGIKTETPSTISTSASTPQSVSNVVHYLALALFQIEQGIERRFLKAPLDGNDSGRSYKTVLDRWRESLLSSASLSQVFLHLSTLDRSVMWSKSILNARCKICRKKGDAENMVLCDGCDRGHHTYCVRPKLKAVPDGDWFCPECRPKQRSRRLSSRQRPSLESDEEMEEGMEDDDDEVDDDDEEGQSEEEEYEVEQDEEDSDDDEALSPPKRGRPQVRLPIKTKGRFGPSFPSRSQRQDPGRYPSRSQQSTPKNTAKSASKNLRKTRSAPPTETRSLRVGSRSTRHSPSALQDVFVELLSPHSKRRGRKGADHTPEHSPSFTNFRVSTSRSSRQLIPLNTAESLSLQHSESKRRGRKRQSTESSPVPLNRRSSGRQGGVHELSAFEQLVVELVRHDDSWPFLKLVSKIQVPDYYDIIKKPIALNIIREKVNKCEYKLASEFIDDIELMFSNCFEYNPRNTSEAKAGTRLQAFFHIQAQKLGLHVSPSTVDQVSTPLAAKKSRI
UniProt Q61686: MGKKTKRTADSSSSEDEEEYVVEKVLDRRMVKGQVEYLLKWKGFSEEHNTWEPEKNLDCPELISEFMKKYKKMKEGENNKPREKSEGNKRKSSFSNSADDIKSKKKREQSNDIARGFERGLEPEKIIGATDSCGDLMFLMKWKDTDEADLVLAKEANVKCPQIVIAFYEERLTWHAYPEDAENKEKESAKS
UniProt O09106: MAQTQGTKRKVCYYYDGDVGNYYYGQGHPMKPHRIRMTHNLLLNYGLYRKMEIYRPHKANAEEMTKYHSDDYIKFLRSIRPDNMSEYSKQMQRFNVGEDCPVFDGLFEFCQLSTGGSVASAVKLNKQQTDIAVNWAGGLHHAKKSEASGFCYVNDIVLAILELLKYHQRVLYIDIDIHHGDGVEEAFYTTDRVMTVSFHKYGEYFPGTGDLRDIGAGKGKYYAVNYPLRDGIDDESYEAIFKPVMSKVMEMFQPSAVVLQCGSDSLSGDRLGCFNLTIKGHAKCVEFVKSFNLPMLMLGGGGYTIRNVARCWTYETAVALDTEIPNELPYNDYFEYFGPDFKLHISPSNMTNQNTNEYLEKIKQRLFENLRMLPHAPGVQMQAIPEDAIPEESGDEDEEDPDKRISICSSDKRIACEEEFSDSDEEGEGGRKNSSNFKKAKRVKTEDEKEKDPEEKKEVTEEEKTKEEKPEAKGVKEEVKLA
UniProt Q9WV02: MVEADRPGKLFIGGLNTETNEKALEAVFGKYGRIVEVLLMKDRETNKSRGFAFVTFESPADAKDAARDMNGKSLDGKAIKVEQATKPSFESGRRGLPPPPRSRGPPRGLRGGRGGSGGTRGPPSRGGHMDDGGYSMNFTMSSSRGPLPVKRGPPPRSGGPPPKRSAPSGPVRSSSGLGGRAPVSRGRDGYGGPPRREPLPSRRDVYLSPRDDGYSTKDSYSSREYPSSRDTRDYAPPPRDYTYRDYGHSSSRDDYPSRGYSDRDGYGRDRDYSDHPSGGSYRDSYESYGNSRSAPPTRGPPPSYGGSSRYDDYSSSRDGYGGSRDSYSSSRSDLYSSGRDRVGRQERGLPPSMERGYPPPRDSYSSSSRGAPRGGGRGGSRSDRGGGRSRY
UniProt Q9CQ71: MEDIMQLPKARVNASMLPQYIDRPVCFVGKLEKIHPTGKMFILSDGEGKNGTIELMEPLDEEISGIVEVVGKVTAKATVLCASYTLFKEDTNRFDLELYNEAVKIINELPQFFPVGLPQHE
UniProt Q8VEE4: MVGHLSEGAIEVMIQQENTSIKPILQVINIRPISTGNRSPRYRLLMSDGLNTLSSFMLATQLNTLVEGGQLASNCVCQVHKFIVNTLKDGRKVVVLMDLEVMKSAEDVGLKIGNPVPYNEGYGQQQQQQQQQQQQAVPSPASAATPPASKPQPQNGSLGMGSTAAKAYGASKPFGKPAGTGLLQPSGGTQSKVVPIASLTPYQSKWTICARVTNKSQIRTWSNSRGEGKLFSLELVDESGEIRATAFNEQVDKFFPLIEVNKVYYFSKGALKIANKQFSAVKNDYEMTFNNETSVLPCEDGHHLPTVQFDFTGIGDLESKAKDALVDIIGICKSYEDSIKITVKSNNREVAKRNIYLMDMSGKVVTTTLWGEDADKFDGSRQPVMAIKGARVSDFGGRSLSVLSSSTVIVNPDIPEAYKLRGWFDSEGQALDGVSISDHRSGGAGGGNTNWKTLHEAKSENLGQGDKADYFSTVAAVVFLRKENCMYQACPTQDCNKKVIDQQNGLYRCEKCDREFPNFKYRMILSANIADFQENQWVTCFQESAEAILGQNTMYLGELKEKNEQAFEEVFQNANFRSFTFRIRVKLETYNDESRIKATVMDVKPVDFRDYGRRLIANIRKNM
UniProt Q60596: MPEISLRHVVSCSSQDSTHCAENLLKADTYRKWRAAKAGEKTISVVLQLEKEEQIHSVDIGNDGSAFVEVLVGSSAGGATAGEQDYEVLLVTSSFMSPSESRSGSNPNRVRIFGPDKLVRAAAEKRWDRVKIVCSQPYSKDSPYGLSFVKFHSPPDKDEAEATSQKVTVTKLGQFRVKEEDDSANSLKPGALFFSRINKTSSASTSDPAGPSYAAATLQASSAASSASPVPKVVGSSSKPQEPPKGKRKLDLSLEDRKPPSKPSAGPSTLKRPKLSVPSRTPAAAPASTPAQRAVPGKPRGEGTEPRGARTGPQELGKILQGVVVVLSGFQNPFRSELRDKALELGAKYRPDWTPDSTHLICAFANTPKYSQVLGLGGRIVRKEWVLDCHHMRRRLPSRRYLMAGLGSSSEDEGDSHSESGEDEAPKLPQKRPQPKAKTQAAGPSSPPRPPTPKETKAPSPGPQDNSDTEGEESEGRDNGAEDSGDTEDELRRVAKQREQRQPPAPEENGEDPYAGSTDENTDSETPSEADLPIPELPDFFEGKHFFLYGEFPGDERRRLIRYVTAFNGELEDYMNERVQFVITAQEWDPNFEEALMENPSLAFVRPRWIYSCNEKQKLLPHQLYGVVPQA
UniProt O88939: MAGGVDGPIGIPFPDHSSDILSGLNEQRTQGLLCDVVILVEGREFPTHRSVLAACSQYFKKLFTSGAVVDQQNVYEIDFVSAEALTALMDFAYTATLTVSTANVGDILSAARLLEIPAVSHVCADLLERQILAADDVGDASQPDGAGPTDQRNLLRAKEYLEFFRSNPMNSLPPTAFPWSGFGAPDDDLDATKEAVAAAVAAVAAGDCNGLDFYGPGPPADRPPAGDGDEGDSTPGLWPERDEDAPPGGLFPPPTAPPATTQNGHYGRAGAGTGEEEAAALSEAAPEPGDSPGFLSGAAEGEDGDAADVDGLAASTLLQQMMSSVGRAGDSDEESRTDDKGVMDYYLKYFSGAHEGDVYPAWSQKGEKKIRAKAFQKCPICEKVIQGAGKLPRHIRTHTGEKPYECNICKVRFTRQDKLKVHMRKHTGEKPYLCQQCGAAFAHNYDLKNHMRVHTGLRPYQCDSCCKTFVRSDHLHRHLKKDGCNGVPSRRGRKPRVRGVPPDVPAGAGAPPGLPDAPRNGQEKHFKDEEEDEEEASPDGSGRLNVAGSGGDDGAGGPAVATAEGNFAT
UniProt Q04207: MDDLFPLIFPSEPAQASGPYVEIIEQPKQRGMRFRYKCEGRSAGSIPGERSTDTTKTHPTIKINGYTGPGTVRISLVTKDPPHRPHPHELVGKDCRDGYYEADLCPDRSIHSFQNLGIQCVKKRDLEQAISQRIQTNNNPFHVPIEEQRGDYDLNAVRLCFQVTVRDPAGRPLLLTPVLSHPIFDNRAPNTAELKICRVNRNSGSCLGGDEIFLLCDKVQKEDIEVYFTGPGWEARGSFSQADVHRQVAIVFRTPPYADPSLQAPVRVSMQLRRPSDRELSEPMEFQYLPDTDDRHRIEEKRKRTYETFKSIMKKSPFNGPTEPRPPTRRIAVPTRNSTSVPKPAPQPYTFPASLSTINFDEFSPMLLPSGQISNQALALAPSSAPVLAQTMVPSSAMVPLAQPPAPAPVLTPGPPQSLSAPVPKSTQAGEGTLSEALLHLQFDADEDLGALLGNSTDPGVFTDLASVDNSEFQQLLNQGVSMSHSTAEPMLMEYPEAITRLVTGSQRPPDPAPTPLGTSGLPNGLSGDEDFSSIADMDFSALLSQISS
UniProt Q8VHR5: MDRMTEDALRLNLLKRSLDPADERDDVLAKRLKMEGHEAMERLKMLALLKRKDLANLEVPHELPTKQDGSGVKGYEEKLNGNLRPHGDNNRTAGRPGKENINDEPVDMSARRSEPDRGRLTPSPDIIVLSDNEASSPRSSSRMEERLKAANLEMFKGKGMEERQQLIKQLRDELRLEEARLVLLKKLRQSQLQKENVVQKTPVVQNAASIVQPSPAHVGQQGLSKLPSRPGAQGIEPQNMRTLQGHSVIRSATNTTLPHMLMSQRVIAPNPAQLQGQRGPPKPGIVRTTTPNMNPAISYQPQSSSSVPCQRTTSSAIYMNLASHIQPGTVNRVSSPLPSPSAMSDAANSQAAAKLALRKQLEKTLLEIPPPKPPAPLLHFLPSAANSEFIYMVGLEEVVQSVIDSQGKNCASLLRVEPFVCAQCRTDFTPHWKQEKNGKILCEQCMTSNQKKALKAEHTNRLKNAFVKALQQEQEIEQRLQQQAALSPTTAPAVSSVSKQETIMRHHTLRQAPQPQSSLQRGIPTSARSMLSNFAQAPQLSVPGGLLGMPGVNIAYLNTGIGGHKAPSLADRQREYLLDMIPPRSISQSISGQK

B1: APLF (protein, UniProt Q9D842 1-499)
chain: MPSDFFLQPLDGGPRVPVGPGQTVIGRGPLLGITDKRVSRRHAILEVVDSQLRIKPIHRNPCFYQSSEKSQHSPMETQVWSQLHPGDSFSLLLDKYAFRVFSAESEVEMECTLRNSQMLDEDDILSEMQKSPVVNLPDKTTGASQLQGSPEITKTKCPTIDPMSSSGECRAFSEHQPRPTQRKRILPAWMLAESLSDQSLSTPAEGGDKDVIQRSGKAGTCEDRTPGNTSWHGKKRLSPSGNSKSVSAEQDPGKKCRKADQEGPGVSSENVPESSSSNIVKDPDVDIVKTNKQKDGILIEELGEVSKHKAATKPTTNEEGESCARVQSKSPPEKSQGCHPESSSAPSSPDALHTDTADPVLGCSEESKVRRTACMYGANCYRRNPLHFQHFSHPGDSDYGEVHGTDEGVIGDRPECPYGASCYRKNPQHKMEYRHSALPARVALDEDDDDVGQPSDDEDEEDYEPTDEDSDWHPGKDDEEQEDVDELLKEAKSSLHLKH
B2: ligase3 (protein, UniProt P97386 1-1015)
chain: MTLAFKILFPRNLCALGRKELCLFPEQNRWAAISQFSQWSETNLLGGCCLLQRRKPVLALQRGHLRPRATHLTFWPGSHVGLCTGPCAMAEQRFCVDYAKRGTAGCKKCKEKIVKGVCRIGKVVPNPFSESGGDMKEWYHIKCMFEKLERARATTKKIEDLTELEGWEELEDNEKEQISQHIADLSSKAAATPKKKAAVQAKLTTTGQVTSPVKGASFITSTNPRKFSGFSAAKPNNSEQAPSSPAPGTSLSASKCDPKHKDCLLREFRKLCAMVAENPSYNTKTQIIHDFLQKGSTGGFSDGFHGDVYLTVKLLLPGVIKSVYNLNDKQIVKLFSRIFNCNPDDMARDLEQGDVSETIRIFFEQSKSFPPAAKSLLTIQEVDAFLLHLSKLTKEDEQQQALQDIASRCTANDLKCIIRLIKHDLKMNSGAKHVLDALDPNAYEAFKASRNLQDVVERVLHNEQEVEKDPGRRRALRVQASLMTPVQPMLAEACKSIEYAMKKCPNGMFSEIKYDGERVQVHKKGDHFSYFSRSLKPVLPHKVAHFKDYIPKAFPGGQSMILDSEVLLIDNNTGKPLPFGTLGVHKKAAFQDANVCLFVFDCIYFNDVSLMDRPLCERRKFLHDNMVEIRNRIMFSEMKQVTKASDLADMINRVIREGLEGLVLKDVKGTYEPGKRHWLKVKKDYLNEGAMADTADLVVLGAFYGQGSKGGMMSIFLMGCYDPDSQKWCTVTKCAGGHDDATLARLQKELVMVKISKDPSKIPSWLKINKIYYPDFIVPDPKKAAVWEITGAEFSRSEAHTADGISIRFPRCTRIRDDKDWKSATNLPQLKELYQLSKDKADFAVVAGDEASPTTGGSSGENEGTAGSAGPCKGPPSKSSASAKTTEQKLNSPSSRGGIKPIPKHSPMKPGEKLAVKSSPVKVGMKRKATDETPCLKKVLLDVFTGVRLYLPPSTPDFKRLKRYFVAFDGDLVQEFDMGSATHVLGNREKNTDAQLVSSEWIWACIRKRRLIAPC
B3: LAP2-beta (protein, UniProt Q61029 1-452)
chain: MPEFLEDPSVLTKDKLKSELVANNVTLPAGEQRKDVYVQLYLQHLTARNRPPLAAGANSKGPPDFSSDEEREPTPVLGSGASVGRGRGAVGRKATKKTDKPRLEDKDDLDVTELSNEELLDQLVRYGVNPGPIVGTTRKLYEKKLLKLREQGTESRSSTPLPTVSSSAENTRQNGSNDSDRYSDNDEDSKIELKLEKREPLKGRAKTPVTLKQRRTEHNQSYSQAGVTETEWTSGSSTGGPLQALTRESTRGSRRTPRKRVETSQHFRIDGAVISESTPIAETIKASSNESLVANRLTGNFKHASSILPITEFSDITRRTPKKPLTRAEVGEKTEERRVDRDILKEMFPYEASTPTGISASCRRPIKGAAGRPLELSDFRMEESFSSKYVPKYAPLADVKSEKTKKRRSVPMWIKMLLFALVAVFLFLVYQAMETNQGNPFTNFLQDTKISN
B4: ATRIP (protein, UniProt Q8BMG1 1-785)
chain: MAGTPAPNSHRKQSGGLEPFPGLSRSIENPPSKRARSFSETTVPDPEDPFGEHAEFTADDLEELDILASQALSQCPVAPRNLSSAHKVRRLDGLPNSPIRKSREDIPVKDNFELEVLQIQYKELKEKLKAMEEEILIKNGEIKILRDSLRQTESVLEEQKRSHFLLEQEKTQALSEKEKEFSRKLQSLQSELQFKDAEMNELRTKSQSNGRTNKPAAPSVSHVSPRKGSSVVLKSEACSPHVGKTTFPTKESFSANTPLFHPCQTEAGHRFLVGQEVSDNKNHSLGGSLMKQDVQQRILADGWMQRKDAQGSILINLLLKQPLVPGSSLGLCHLLSSCPEVPTGTLLQPPGLSTLPGTSGLRTISSSDGPFSPSALREAQNLAFTGLNLVARTESSHDGDMAGRRVFPLHQLPGAVHLLPLVQFFVGLHCQALQDLAPAKKSGVPGDSATHTSCMSSGVEASPEDSIHGLESFSVASLSVLQNLVCHSGAVVCLLLSGMGTEAAAREGNLVQTCADTTSASREDAHDQDQHPLLKMLLQLMASSSAASGHFQASVLGLCLKVLVKLAENASSDLLPRFSCVFPVLPQCLGSALPLPCVLLAVELLSVLLDHDSLAWQLCSHPEGCLLLRLYMYITSRPDRTASETQWLQLEQEVVWLLAKLSVQSPAPAGIGSDCHCNVEAVRALTVMLHRQWLTVRRAGGPRTHQQKQTIRCLRDTVLLLHSLSQKDKLFTVHCVEVLHQYDQVMPGVSMLIRALPDVTDCEEAALDDLCAAETDLEDSEMDCN
B5: RBM14 (endogenous, C2C12) (protein, UniProt Q8C2Q3 1-669)
chain: MKIFVGNVDGADTTPEELAALFAPYGTVMSCAVMKQFAFVHMRENAGAVRAIEALHGHELRPGRALVVEMSRPRPLNTWKIFVGNVSAACTSQELRSLFERRGRVIECDVVKDYAFVHMEKEADAKAAIAQLNGKEVKGKRINVELSTKGQKKGPALAIQSGDKTKKPGAGDTAFPGTGGFSATFDYQQAFGNSTGGFDGQARQPTPPFFGRDRSPLRRSPPRASYVAPLTAQPATYRAQPSVSLGAAYRAQPSASLGVGYRTQPMAAQAASYRAQPSVSLGAPYRGQLASPSSQSAAASSLGPYGGVQPSASALSTYGGQAAAASSLNSYGAQGSSLASYGNQPSSYGAQAASSYGVRAAASSYNTQGAASSLGSYGAQAASYGAQSAASSLAYGAQAASYSAQPSASYSAQSAPYAAQQAASYSSQPAAYVAQPATAAAYASQPAAYAAQATTPMAGSYGAQPVVQTQLNSYGAQASIGLSGSYGAQSAAAATGSYGAAAAYGAQPSATLAAPYRTQSSASLAASYAAQQHPQAAASYRGQPGSAYDGTGQPSAAYLSMSQGAVANANSTPPPYERTRLSPPRASYDDPYKKAVAMSKRYGSDRRLAELSDYRRLSESQLSFRRSPTKSSLDYRRLPDAHSDYARYSGSYNDYLRAAQMHSGYQRRM
B6: DOC-1 (protein, UniProt O35207 1-114)
chain: MSYKPNLTAHMPAAALNAGSVHSPSTSMATSSQYRQLLSDYGPPSLGYTQGTGNSQVPQSKYAELLAIIEELGKEIRPTYAGSKSAMERLKRGIIHARSLVRECLAETERNARS

Molecular target: N-terminal 3X-FLAG-tagged vertebrate GAF (vGAF/ThPOK/ZBTB7B), expressed in C2C12 myoblast cells (UniProt Q64321)
Experiment: affinity purification with mass spectrometry

binding, binds:
ARID1A (from UniProt A2BH40 1-2283)
ATR (ATM- and Rad3-Related) (from UniProt Q9JKK8 1-2635)
Aprataxin (from UniProt Q7TQC5 1-342)
BAZ1A (from UniProt O88379 1-1555)
CBX5 (endogenous, C2C12) (from UniProt Q61686 1-191)
HDAC1 (endogenous, C2C12) (from UniProt O09106 1-482)
HDAC2 (from UniProt P70288 1-488)
Ku60 (from UniProt P23475 1-608)
Ku80 (from UniProt P27641 1-732)
Mi-2beta/CHD4 (from UniProt Q6PDQ2 1-1915)
PNKP (from UniProt Q9JLV6 1-522)
PRPF19 (from UniProt Q99KP6 1-504)
RBMX (from UniProt Q9WV02 1-391)
RPA14 (from UniProt Q9CQ71 1-121)
RPA32 (from UniProt Q62193 1-270)
RPA70 (from UniProt Q8VEE4 1-623)
RUVBL1 (from UniProt P60122 1-456)
SNF2H (from UniProt Q91ZW3 1-1051)
XRCC1 (from UniProt Q60596 1-631)
ZBTB7A/LRF (from UniProt O88939 1-569)
p65 (endogenous, C2C12) (from UniProt Q04207 1-549)
p66-alpha (from UniProt Q8CHY6 1-629)
p66-beta (from UniProt Q8VHR5 1-594)

Molecular target: N-terminal 3X-FLAG-tagged vertebrate GAF (vGAF/ThPOK/ZBTB7B), expressed in C2C12 myoblast cells (UniProt Q64321)
Experiment: affinity purification with mass spectrometry
Remark: another data set of the same source

binding, binds:
B1
B2
B3
B4
B5
B6
